Results are given in words; binding and its absence hold for the method and conditions named. In cells and extracts the contact can be indirect. Here binding means that the protein was enriched with, or labelled near, the bait; the list need not be complete.
B1: Peroxisomal sarcosine oxidase (PIPOX) (enzyme, UniProt Q9D826 1-390)
chain: MAAQTDFWDAIVIGAGIQGCFTAYHLAKHSKSVLLLEQFFLPHSRGSSHGQSRIIRKAYPEDFYTMMMKECYQTWAQLEREAGTQLHRQTELLLLGTKENPGLKTIQATLSRQGIDHEYLSSVDLKQRFPNIRFTRGEVGLLDKTGGVLYADKALRALQHIICQLGGTVCDGEKVVEIRPGLPVTVKTTLKSYQANSLVITAGPWTNRLLHPLGIELPLQTLRINVCYWREKVPGSYGVSQAFPCILGLDLAPHHIYGLPASEYPGLMKICYHHGDNVDPEERDCPKTFSDIQDVQILCHFVRDHLPGLRAEPDIMERCMYTNTPDEHFILDCHPKYDNIVIGAGFSGHGFKLAPVVGKILYELSMKLPPSYDLAPFRMSRFSTLSKAHL
B2: Non-specific lipid-transfer protein (SCP2) (enzyme, UniProt P32020 1-547)
chain: MPSVALKSPRLRRVFVVGVGMTKFMKPGGENSRDYPDMAKEAGQKALEDAQIPYSAVEQACVGYVYGDSTSGQRAIYHSLGLTGIPIINVNNNCSTGSTALFMAHQLIQGGLANCVLALGFEKMERGSIGTKFSDRTTPTDKHIEVLIDKYGLSAHPITPQMFGYAGKEHMEKYGTKVEHFAKIGWKNHKHSVNNTYSQFQDEYSLEEVMKSKPVFDFLTILQCCPTSDGAAAAILSSEEFVQQYGLQSKAVEIVAQEMMTDLPSTFEEKSIIKVVGYDMSKEAARRCYEKSGLTPNDVDVIELHDCFSVNELITYEALGLCPEGQGGTLVDRGDNTYGGKWVINPSGGLISKGHPLGATGLAQCAELCWQLRGEAGKRQVPGAKVALQHNLGLGGAVVVTLYRMGFPEAASSFRTHQVSAAPTSSAGDGFKANLVFKEIEKKLEEEGEQFVKKIGGIFAFKVKDGPGGKEATWVVDVKNGKGSVLPNSDKKADCTITMADSDLLALMTGKMNPQSAFFQGKLKIAGNMGLAMKLQNLQLQPGKAKL
B3: Uricase (UOX) (enzyme, UniProt P25688 1-303)
chain: MAHYHDNYGKNDEVEFVRTGYGKDMVKVLHIQRDGKYHSIKEVATSVQLTLRSKKDYLHGDNSDIIPTDTIKNTVHVLAKLRGIRNIETFAMNICEHFLSSFNHVTRAHVYVEEVPWKRFEKNGIKHVHAFIHTPTGTHFCEVEQMRNGPPVIHSGIKDLKVLKTTQSGFEGFLKDQFTTLPEVKDRCFATQVYCKWRYQRRDVDFEAIWGAVRDIVLQKFAGPYDKGEYSPSVQKTLYDIQVLSLSQLPEIEDMEISLPNIHYFNIDMSKMGLINKEEVLLPLDNPYGKITGTVKRKLPSRL
B4: 3-ketoacyl-CoA thiolase B (ACAA1b) (enzyme, UniProt Q8VCH0 27-424)
chain: SAGFLQASASDVVVVHGRRTPIGRASRGCFKDTTPDELLSAVLTAVLQDVKLKPEQLGDISVGNVLQPGAGAIMARIAQFLSGIPETVPLSTVNRQCSSGLQAVANIAGGIRNGSYDIGMACGVESMTLSQRGNHGNISSRLLENEKARDCLIPMGITSENVAERFGVSRQKQDAFALASQQKAASAQSRGCFHAEIVPVTTTVLNDKGDKKTITVSQDEGVRPSTTMQGLAKLKPAFKDGGSTTAGNSSQVSDGAAAVLLARRSKAEELGLPILGVLRSYAVVGVPPDVMGIGPAYAIPAALQKAGLTVNDIDIFEINEAFASQAVYCVEKLGIPAEKVNPLGGAIALGHPLGCTGARQVVTLLNELKRRGRRAYGVVSMCIGTGMGAAAVFEYPGN
B5: Acyl-CoA dehydrogenase 11 (ACAD11) (enzyme, UniProt Q80XL6 1-779)
chain: METDVTSDTVEVLPQHKFDLRSLEAYLNQHLPGFGSDSRAVLTVTQYRSGQSNPTFFLQKGSQAYVLRKKPPGSLLPKAHKIDREFKIQKALFSIGFPVAKPLLYCRDASVIGTEFYVMEHVQGRIFRDFSIPGVSSAERAAIYVSVAETLAWLHSLDIRSLKLDKYGTGVGYCKRQVSTWTKQYQASAHQSIPAMDQLSTWLMKNLPDSDSEECLVHGDFKLDNIVFHPKECRVIAVLDWELSTFGHPLTDLAHLSLFYYWPRTLPMINRGSHIPENTGIPLMEELISIYCHRRGIDPNLPNWNFFMALSFFKLAGISQGVYRRYLMGNNSSEDSFLTANTVQPLAETGLQLSKRTLRTTPPQADAKSQLFAQSRRGQEVLTRVKQFMKQHVFPAEKEVAEYYAQSGNSAEKWGHPLVIEKLKEMAKAEGLWNLFLPAVSGLSQVDYALIAEETGKCFFAPDVFNCQAPDTGNMEVLHLYGSEQQKKQWLEPLLRGDITSVFCMTEPNVSSSDATNIECTIQRDGGGYIVNGKKWWSSGAGNPKCKIAIVLGRTESPSASRHRQHSMILVPMDTPGVELIRPLSVFGYMDNMHGGHWEVHFNHVRVPASNLILGEGRGFEISQGRLGPGRIHHCMRTVGLAERILQIMCDRAVQREAFKKKLYEHEVVAHWIAKSRIAIEEIRLLTLKAAHSIDTLGSASARKEIAMIKVAAPKAVCKIADWAIQVHGGAGVSQDYPLANMYAIIRTLRLADGPDEVHLSAIAKMELQDQARRLTARM
B6: Lon protease homolog 2, peroxisomal (LONP2) (enzyme, UniProt Q9DBN5 1-852)
chain: MSSVSPIQIPSRLPLLLTHESVLLPGSTMRTSVDTARNLQLVRSRLLKGTSLQSTILGVIPNTPDPASDTQDLPPLHRIGTAALAVQVVGSNWPKPHYTLLITGLCRFQIVQVLKEKPYPVAEVEQLDRLEEFPNICKSREELGELSEQFYRYAVQLVEMLDMSVPAVAKLRRLLDNLPREALPDILTSIIRTSNKEKLQILDAVSLEDRFKMTIPLLVRQIEGLKLLQKTRKPKQDDDKRVIAIRPIRRIPHIPGTLEDEEEEEDNDDIVMLEKKIRTSSMPEQAHKVCVKEIKRLKKMPQSMPEYALTRNYLELMVELPWNKSTTDRLDIRAARILLDNDHYAMEKLKRRVLEYLAVRQLKNNLKGPILCFVGPPGVGKTSVGRSVAKTLGREFHRIALGGVCDQSDIRGHRRTYVGSMPGRIINGLKTVGVNNPVFLLDEVDKLGKSLQGDPAAALLEVLDPEQNHNFTDHYLNVAFDLSQVLFIATANTTATIPPALLDRMEIIQVPGYTQEEKIEIAHRHLIPKQLEQHGLTPQQIQIPQHTTLAIITRYTREAGVRSLDRKFGAICRAVAVKVAEGQHKEAKLDRSDVADGEGCKEHVLEDAKPESISDTADLALPPEMPILIDSHALKDILGPPLYELEVSERLSQPGVAIGLAWTPLGGKIMFVEASRMDGEGQLTLTGQLGDVMKESAHLAISWLRSNAKKYHLTNAFGSFDLLDNTDIHLHFPAGAVTKDGPSAGVTIVTCLASLFSGRLVRSDVAMTGEITLRGLVLPVGGIKDKVLAAHRAGLKQIIIPQRNEKDLEEIPSNVRQDLSFVTASCLDEVLNAAFDGGFPVKTRPGLIDSKL
B7: Peroxisomal 2,4-dienoyl-CoA reductase (DECR2) (enzyme, UniProt Q9WV68 1-292)
chain: MAQPPPDVEGDDCLPEYHHLFCPDLLQDKVAFITGGGSGIGFRIAEIFMRHGCHTVIVGRSLQKVTTAAKKLVAATGKRCLPLSMDVRVPPEVMTAVDQALQEFGKINILINCAAGNFLCPASALSFNAFKTVVDIDTIGTFNVSSVLYKKFFRDHGGVIVNITATLSMRGQVLQLHAGAAKAAVDAMTRHLAVEWGPQNIRVNSLAPGAISGTEGLRRLRGSNASSKLKHFSNPIPRLGTKTEIAHSVLYLASPLASYVSGIVLVVDGGSWMTFPNGIKQLLEFESFSAKL
B8: Peroxisomal acyl-coenzyme A oxidase 1 (ACOX1) (enzyme, UniProt Q9R0H0 1-661)
chain: MNPDLRKERAAATFNPELITHILDGSPENTRRRREIENLILNDPDFQHEDYNFLTRSQRYEVAVKKSATMVKKMREFGIADPEEIMWFKKLHMVNFVEPVGLNYSMFIPTLLNQGTTAQQEKWMHPSQELQIIGTYAQTEMGHGTHLRGLETTATYDPKTQEFILNSPTVTSIKWWPGGLGKTSNHAIVLAQLITRGECYGLHAFVVPIREIGTHKPLPGITVGDIGPKFGYEEMDNGYLKMDNYRIPRENMLMKYAQVKPDGTYVKPLSNKLTYGTMVFVRSFLVGSAAQSLSKACTIAIRYSAVRRQSEIKRSEPEPQILDFQTQQYKLFPLLATAYAFHFLGRYIKETYMRINESIGQGDLSELPELHALTAGLKAFTTWTANAGIEECRMACGGHGYSHSSGIPNIYVTFTPACTFEGENTVMMLQTARFLMKIYDQVQSGKLVGGMVSYLNDLPSQRIQPQQVAVWPTLVDINSLDSLTEAYKLRAARLVEIAAKNLQAQVSHRKSKEVAWNLTSVDLVRASEAHCHYVTVKVFADKLPKIQDRAVQAVLRNLCLLYSLYGISQKGGDFLEGNIITGAQMSQVNSRILELLTVTRPNAVALVDAFDFKDVTLGSVLGRYDGNVYENLFEWAKKSPLNKTEVHESYYKHLKPLQSKL
B9: Catalase (CAT) (enzyme, UniProt P24270 1-527)
chain: MSDSRDPASDQMKQWKEQRASQRPDVLTTGGGNPIGDKLNIMTAGSRGPLLVQDVVFTDEMAHFDRERIPERVVHAKGAGAFGYFEVTHDITRYSKAKVFEHIGKRTPIAVRFSTVTGESGSADTVRDPRGFAVKFYTEDGNWDLVGNNTPIFFIRDAILFPSFIHSQKRNPQTHLKDPDMVWDFWSLRPESLHQVSFLFSDRGIPDGHRHMNGYGSHTFKLVNADGEAVYCKFHYKTDQGIKNLPVGEAGRLAQEDPDYGLRDLFNAIANGNYPSWTFYIQVMTFKEAETFPFNPFDLTKVWPHKDYPLIPVGKLVLNKNPVNYFAEVEQMAFDPSNMPPGIEPSPDKMLQGRLFAYPDTHRHRLGPNYLQIPVNCPYRARVANYQRDGPMCMHDNQGGAPNYYPNSFSAPEQQRSALEHSVQCAVDVKRFNSANEDNVTQVRTFYTKVLNEEERKRLCENIAGHLKDAQLFIQKKAVKNFTDVHPDYGARIQALLDKYNAEKPKNAIHTYTQAGSHMAAKGKANL
B10: Peroxisomal bifunctional enzyme type 2 (HSD17B4) (enzyme, UniProt P51660 1-735)
chain: MASPLRFDGRVVLVTGAGGGLGRAYALAFAERGALVIVNDLGGDFKGIGKGSSAADKVVAEIRRKGGKAVANYDSVEAGEKLVKTALDTFGRIDVVVNNAGILRDRSFSRISDEDWDIIHRVHLRGSFQVTRAAWDHMKKQNYGRILMTSSASGIYGNFGQANYSAAKLGILGLCNTLAIEGRKNNIHCNTIAPNAGSRMTETVLPEDLVEALKPEYVAPLVLWLCHESCEENGGLFEVGAGWIGKLRWERTLGAIVRKRNQPMTPEAVRDNWEKICDFSNASKPQTIQESTGGIVEVLHKVDSEGISPNRTSHAAPAATSGFVGAVGHKLPSFSSSYTELQSIMYALGVGASVKNPKDLKFVYEGSADFSCLPTFGVIVAQKSMMNGGLAEVPGLSFNFAKALHGEQYLELYKPLPRSGELKCEAVIADILDKGSGVVIVMDVYSYSGKELICYNQFSVFVVGSGGFGGKRTSEKLKAAVAVPNRPPDAVLRDATSLNQAALYRLSGDWNPLHIDPDFASVAGFEKPILHGLCTFGFSARHVLQQFADNDVSRFKAIKVRFAKPVYPGQTLQTEMWKEGNRIHFQTKVHETGDVVISNAYVDLVPASGVSTQTPSEGGELQSALVFGEIGRRLKSVGREVVKKANAVFEWHITKGGTVAAKWTIDLKSGSGEVYQGPAKGSADVTIIISDEDFMEVVFGKLDPQKAFFSGRLKARGNIMLSQKLQMILKDYAKL

By UniProt entry, the sequences of proteins in these tests, tags left out. Residues count along the entry.
UniProt Q9NXA8, residues 37-310: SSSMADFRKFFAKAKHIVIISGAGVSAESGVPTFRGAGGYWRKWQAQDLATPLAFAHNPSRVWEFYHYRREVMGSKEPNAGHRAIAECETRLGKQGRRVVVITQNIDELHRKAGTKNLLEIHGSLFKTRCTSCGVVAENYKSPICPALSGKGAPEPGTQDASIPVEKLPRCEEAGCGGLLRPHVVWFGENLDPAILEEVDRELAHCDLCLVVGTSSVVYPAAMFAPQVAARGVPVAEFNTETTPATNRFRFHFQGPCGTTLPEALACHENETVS
UniProt Q99P30: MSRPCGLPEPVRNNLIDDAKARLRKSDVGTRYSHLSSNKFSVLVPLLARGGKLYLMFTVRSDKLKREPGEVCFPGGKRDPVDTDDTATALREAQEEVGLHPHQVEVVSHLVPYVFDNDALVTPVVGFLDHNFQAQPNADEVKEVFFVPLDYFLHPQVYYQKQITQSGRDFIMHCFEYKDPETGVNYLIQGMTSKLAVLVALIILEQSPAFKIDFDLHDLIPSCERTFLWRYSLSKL
UniProt O35488: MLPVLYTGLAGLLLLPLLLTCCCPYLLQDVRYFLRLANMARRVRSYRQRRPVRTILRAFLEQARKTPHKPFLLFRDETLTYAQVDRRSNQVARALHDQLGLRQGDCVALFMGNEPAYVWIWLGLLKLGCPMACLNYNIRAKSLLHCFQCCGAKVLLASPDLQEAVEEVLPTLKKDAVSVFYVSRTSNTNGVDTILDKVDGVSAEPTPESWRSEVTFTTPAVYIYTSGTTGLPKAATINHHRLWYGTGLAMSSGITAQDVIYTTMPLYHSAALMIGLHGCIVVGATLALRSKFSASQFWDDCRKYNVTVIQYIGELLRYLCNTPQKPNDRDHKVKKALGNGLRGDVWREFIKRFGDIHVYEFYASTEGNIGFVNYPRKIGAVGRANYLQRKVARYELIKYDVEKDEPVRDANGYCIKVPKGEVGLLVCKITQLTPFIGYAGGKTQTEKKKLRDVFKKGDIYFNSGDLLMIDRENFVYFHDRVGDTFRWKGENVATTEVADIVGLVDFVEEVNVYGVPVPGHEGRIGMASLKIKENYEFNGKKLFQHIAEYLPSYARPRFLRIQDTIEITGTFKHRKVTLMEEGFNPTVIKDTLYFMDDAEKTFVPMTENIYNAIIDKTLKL
UniProt Q9DBM2: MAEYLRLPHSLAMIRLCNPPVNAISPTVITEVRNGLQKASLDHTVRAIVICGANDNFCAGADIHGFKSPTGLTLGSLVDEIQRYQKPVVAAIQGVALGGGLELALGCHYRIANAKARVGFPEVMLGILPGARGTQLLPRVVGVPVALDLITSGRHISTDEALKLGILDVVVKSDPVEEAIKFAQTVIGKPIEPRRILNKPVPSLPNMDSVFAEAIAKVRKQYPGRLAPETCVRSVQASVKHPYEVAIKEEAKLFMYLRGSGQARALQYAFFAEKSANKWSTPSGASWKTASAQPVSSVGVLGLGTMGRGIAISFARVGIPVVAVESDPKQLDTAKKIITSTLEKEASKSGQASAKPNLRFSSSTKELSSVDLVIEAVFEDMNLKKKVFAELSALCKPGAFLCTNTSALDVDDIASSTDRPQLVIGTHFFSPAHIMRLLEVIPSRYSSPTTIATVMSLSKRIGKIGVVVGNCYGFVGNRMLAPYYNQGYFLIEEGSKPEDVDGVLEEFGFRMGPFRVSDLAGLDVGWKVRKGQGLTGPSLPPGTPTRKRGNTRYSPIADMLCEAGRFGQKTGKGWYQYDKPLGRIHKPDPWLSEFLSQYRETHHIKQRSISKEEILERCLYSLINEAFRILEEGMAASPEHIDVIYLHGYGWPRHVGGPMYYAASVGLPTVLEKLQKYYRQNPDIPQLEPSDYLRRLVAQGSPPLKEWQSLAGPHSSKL

target: recombinant 6His tagged SIRT5 (human sirtuin-5) (human) (UniProt Q9NXA8); experiment: affinity purification with mass spectrometry; 5 ug recombinant 6His-SIRT5 added to pre-cleared SIRT5KO mouse liver lysate in RIPA buffer, 37 C for 30 min; polyHis-antibody agarose overnight at 4 C; 4 washes with RIPA; SDS-PAGE bands excised and identified by mass spectrometry; only the target purified

binding, binds:
Peroxisomal coenzyme A diphosphatase (NUDT7) (from UniProt Q99P30 1-236), Very long-chain acyl-CoA synthetase (SLC27A2) (from UniProt O35488 1-620) (enzyme), Peroxisomal bifunctional enzyme type 1 (EHHADH) (from UniProt Q9DBM2 1-718), B1, B2, B3, B4, B5, B6, B7, B8, B9, B10

— article PMC11673421
